Experimental data: the supplement of paper PMC7661543
± gives the standard deviation of the averaged measurements. The effect of the compound repeats well; differences between the knockouts mostly do not.

Test system: HCC-38
Assay: relative cell number vs DMSO control (72 h) (% of DMSO); higher = less growth inhibition (more cells)
Description: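 QMAP-Seq: a pool of 5 breast cancer cell lines (ZR-75-1, SKBR3, HCC-38, MDA-MB-231, BT-20), each carrying 12 doxycycline-inducible Cas9 sgRNA perturbations (11 knockouts plus non-targeting sgNT), was treated with compounds for 72 h at four 10-fold doses (10 nM-10 uM or 1 nM-1 uM range). Barcodes were amplified and sequenced, and cell number was interpolated from 293T spike-in standard curves. The result is expressed as % of the median of DMSO wells. Two biological replicates.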

O=c1ncccn1[C@@H]1O[C@H](CO)[C@@H](O)[C@H]1O [Zebularine]
Conditions	relative cell number
sgRNA knockout: sgATF3, 10 nM	112 ± 21
sgRNA knockout: sgATF3, 100 nM	107 ± 7.2
sgRNA knockout: sgATF3, 1000 nM	100.5 ± 0.21
sgRNA knockout: sgATF3, 10000 nM	115 ± 3.4
sgRNA knockout: sgATF4, 10 nM	117 ± 28
sgRNA knockout: sgATF4, 100 nM	96.2 ± 2.2
sgRNA knockout: sgATF4, 1000 nM	104 ± 8.9
sgRNA knockout: sgATF4, 10000 nM	107 ± 6.4
sgRNA knockout: sgATF6, 10 nM	116 ± 48
sgRNA knockout: sgATF6, 100 nM	99.6 ± 4
sgRNA knockout: sgATF6, 1000 nM	107 ± 24
sgRNA knockout: sgATF6, 10000 nM	95.5 ± 15
sgRNA knockout: sgATG7, 10 nM	113 ± 36
sgRNA knockout: sgATG7, 100 nM	101 ± 8.9
sgRNA knockout: sgATG7, 1000 nM	93.5 ± 3.7
sgRNA knockout: sgATG7, 10000 nM	105 ± 7.3
sgRNA knockout: sgERN1, 10 nM	107 ± 24
sgRNA knockout: sgERN1, 100 nM	106 ± 3.6
sgRNA knockout: sgERN1, 1000 nM	97.2 ± 7
sgRNA knockout: sgERN1, 10000 nM	108 ± 7.9
sgRNA knockout: sgHSF1, 10 nM	97.3 ± 1.6
sgRNA knockout: sgHSF1, 100 nM	97.2 ± 25
sgRNA knockout: sgHSF1, 1000 nM	85.1 ± 24
sgRNA knockout: sgHSF1, 10000 nM	97.8 ± 19
sgRNA knockout: sgHSF2, 10 nM	116 ± 17
sgRNA knockout: sgHSF2, 100 nM	99.2 ± 10
sgRNA knockout: sgHSF2, 1000 nM	116 ± 16
sgRNA knockout: sgHSF2, 10000 nM	114.8 ± 0.86
sgRNA knockout: sgKEAP1, 10 nM	108 ± 1.3
sgRNA knockout: sgKEAP1, 100 nM	101 ± 9.1
sgRNA knockout: sgKEAP1, 1000 nM	106 ± 40
sgRNA knockout: sgKEAP1, 10000 nM	108 ± 11
sgRNA knockout: sgNFE2L2, 10 nM	110 ± 33
sgRNA knockout: sgNFE2L2, 100 nM	99.4 ± 18
sgRNA knockout: sgNFE2L2, 1000 nM	108 ± 1.5
sgRNA knockout: sgNFE2L2, 10000 nM	113 ± 15
sgRNA knockout: sgSLC35F2, 10 nM	117 ± 20
sgRNA knockout: sgSLC35F2, 100 nM	106 ± 13
sgRNA knockout: sgSLC35F2, 1000 nM	99.99 ± 0.64
sgRNA knockout: sgSLC35F2, 10000 nM	105 ± 1.7
sgRNA knockout: sgXBP1, 10 nM	115 ± 28
sgRNA knockout: sgXBP1, 100 nM	101 ± 9.9
sgRNA knockout: sgXBP1, 1000 nM	104 ± 15
sgRNA knockout: sgXBP1, 10000 nM	115 ± 19

Nc1ncn([C@H]2C[C@H](O)[C@@H](CO)O2)c(=O)n1 [Decitabine]
Conditions	relative cell number
sgRNA knockout: sgATF3, 10 nM	93.5 ± 5.4
sgRNA knockout: sgATF3, 100 nM	76.593 ± 0.0049
sgRNA knockout: sgATF3, 1000 nM	51.4 ± 2
sgRNA knockout: sgATF3, 10000 nM	39.3 ± 5.6
sgRNA knockout: sgATF4, 10 nM	95.5 ± 18
sgRNA knockout: sgATF4, 100 nM	75.84 ± 0.57
sgRNA knockout: sgATF4, 1000 nM	47 ± 5.5
sgRNA knockout: sgATF4, 10000 nM	34.1 ± 3.4
sgRNA knockout: sgATF6, 10 nM	95 ± 16
sgRNA knockout: sgATF6, 100 nM	62.7 ± 12
sgRNA knockout: sgATF6, 1000 nM	46.4 ± 7.8
sgRNA knockout: sgATF6, 10000 nM	43.4 ± 7.4
sgRNA knockout: sgATG7, 10 nM	101 ± 5.3
sgRNA knockout: sgATG7, 100 nM	74.1 ± 4
sgRNA knockout: sgATG7, 1000 nM	52.7 ± 4
sgRNA knockout: sgATG7, 10000 nM	33.6 ± 7.4
sgRNA knockout: sgERN1, 10 nM	98.7 ± 15
sgRNA knockout: sgERN1, 100 nM	75.08 ± 0.15
sgRNA knockout: sgERN1, 1000 nM	52.3 ± 6.7
sgRNA knockout: sgERN1, 10000 nM	34.2 ± 3
sgRNA knockout: sgHSF1, 10 nM	87.8 ± 19
sgRNA knockout: sgHSF1, 100 nM	77.6 ± 5.2
sgRNA knockout: sgHSF1, 1000 nM	56.9 ± 4
sgRNA knockout: sgHSF1, 10000 nM	35 ± 9.3
sgRNA knockout: sgHSF2, 10 nM	103 ± 12
sgRNA knockout: sgHSF2, 100 nM	83.9 ± 4
sgRNA knockout: sgHSF2, 1000 nM	50.5 ± 2.1
sgRNA knockout: sgHSF2, 10000 nM	35.7 ± 1
sgRNA knockout: sgKEAP1, 10 nM	114 ± 48
sgRNA knockout: sgKEAP1, 100 nM	74.8 ± 5.3
sgRNA knockout: sgKEAP1, 1000 nM	56.7 ± 26
sgRNA knockout: sgKEAP1, 10000 nM	36.2 ± 1.6
sgRNA knockout: sgNFE2L2, 10 nM	91.7 ± 13
sgRNA knockout: sgNFE2L2, 100 nM	78.2 ± 8.2
sgRNA knockout: sgNFE2L2, 1000 nM	50.2 ± 0.56
sgRNA knockout: sgNFE2L2, 10000 nM	33.5 ± 4.5
sgRNA knockout: sgSLC35F2, 10 nM	89.5 ± 20
sgRNA knockout: sgSLC35F2, 100 nM	79.1 ± 19
sgRNA knockout: sgSLC35F2, 1000 nM	49.9 ± 4.1
sgRNA knockout: sgSLC35F2, 10000 nM	36.3 ± 2.9
sgRNA knockout: sgXBP1, 10 nM	103 ± 4.5
sgRNA knockout: sgXBP1, 100 nM	73.7 ± 3.2
sgRNA knockout: sgXBP1, 1000 nM	50.3 ± 2.7
sgRNA knockout: sgXBP1, 10000 nM	33.1 ± 6

C=CCc1cccc(/C=N/NC(=O)CN2CCN(Cc3ccccc3)CC2)c1O [PAC1]
Conditions	relative cell number
sgRNA knockout: sgATF3, 10 nM	99.3 ± 15
sgRNA knockout: sgATF3, 100 nM	98.1 ± 6.6
sgRNA knockout: sgATF3, 1000 nM	89 ± 17
sgRNA knockout: sgATF3, 10000 nM	31.4 ± 1.3
sgRNA knockout: sgATF4, 10 nM	111 ± 1.8
sgRNA knockout: sgATF4, 100 nM	101 ± 1.6
sgRNA knockout: sgATF4, 1000 nM	93.1 ± 24
sgRNA knockout: sgATF4, 10000 nM	32.8 ± 1.6
sgRNA knockout: sgATF6, 10 nM	105 ± 9.1
sgRNA knockout: sgATF6, 100 nM	75.2 ± 5.1
sgRNA knockout: sgATF6, 1000 nM	97.5 ± 4.6
sgRNA knockout: sgATF6, 10000 nM	32.9 ± 3.9
sgRNA knockout: sgATG7, 10 nM	102 ± 2.7
sgRNA knockout: sgATG7, 100 nM	98.8 ± 6.8
sgRNA knockout: sgATG7, 1000 nM	85.3 ± 9.6
sgRNA knockout: sgATG7, 10000 nM	35.6 ± 3.9
sgRNA knockout: sgERN1, 10 nM	94.6 ± 5.2
sgRNA knockout: sgERN1, 100 nM	85.4 ± 4.3
sgRNA knockout: sgERN1, 1000 nM	91.9 ± 2.7
sgRNA knockout: sgERN1, 10000 nM	36.1 ± 10
sgRNA knockout: sgHSF1, 10 nM	96.5 ± 11
sgRNA knockout: sgHSF1, 100 nM	77 ± 7.3
sgRNA knockout: sgHSF1, 1000 nM	72.1 ± 16
sgRNA knockout: sgHSF1, 10000 nM	30.9 ± 8.4
sgRNA knockout: sgHSF2, 10 nM	100 ± 4.3
sgRNA knockout: sgHSF2, 100 nM	94.6 ± 1.1
sgRNA knockout: sgHSF2, 1000 nM	93 ± 8
sgRNA knockout: sgHSF2, 10000 nM	30.9 ± 12
sgRNA knockout: sgKEAP1, 10 nM	101 ± 4.6
sgRNA knockout: sgKEAP1, 100 nM	87.3 ± 4.2
sgRNA knockout: sgKEAP1, 1000 nM	99.4 ± 7
sgRNA knockout: sgKEAP1, 10000 nM	23.9 ± 1.8
sgRNA knockout: sgNFE2L2, 10 nM	105 ± 4.4
sgRNA knockout: sgNFE2L2, 100 nM	103.3 ± 0.39
sgRNA knockout: sgNFE2L2, 1000 nM	86.2 ± 18
sgRNA knockout: sgNFE2L2, 10000 nM	29.17 ± 0.23
sgRNA knockout: sgSLC35F2, 10 nM	104 ± 3.1
sgRNA knockout: sgSLC35F2, 100 nM	94.19 ± 0.79
sgRNA knockout: sgSLC35F2, 1000 nM	93.8 ± 27
sgRNA knockout: sgSLC35F2, 10000 nM	30.2 ± 2
sgRNA knockout: sgXBP1, 10 nM	95 ± 6.8
sgRNA knockout: sgXBP1, 100 nM	102 ± 5.1
sgRNA knockout: sgXBP1, 1000 nM	91.6 ± 16
sgRNA knockout: sgXBP1, 10000 nM	30.9 ± 3.9
